Drawing on paper PMC8527527, this text covers binding for 2 substances.

In this assay the target is T1, MED18 fused to the C-terminal YFP fragment (MED18-Yc) (Arabidopsis) (UniProt Q9SJZ6).
T1 sequence: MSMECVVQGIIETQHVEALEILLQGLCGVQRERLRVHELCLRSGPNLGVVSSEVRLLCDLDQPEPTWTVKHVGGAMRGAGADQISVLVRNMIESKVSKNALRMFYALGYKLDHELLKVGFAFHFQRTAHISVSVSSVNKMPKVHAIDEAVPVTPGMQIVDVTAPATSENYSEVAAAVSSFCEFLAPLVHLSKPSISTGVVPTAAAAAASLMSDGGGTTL
In words: split reporter; BiFC with split YFP (pFGC-N-YFP, pFGC-C-YFP) in Agrobacterium-infiltrated N. benthamiana leaves, examined 48 h after infiltration by confocal microscopy.

Results are given in words; binding and its absence hold for the method and conditions named. Binding seen in cells or lysates may run through a third protein. Binding calls can cover weak binding; strength is not graded here. Sequences can lack the tags named with a protein.

“C-terminal half of NRPD2a fused to the N-terminal YFP fragment (NRPD2aCTD-Yn) (Arabidopsis) (domain or fragment)”: the binding result is “binds”.

Consider “N-terminal half of NRPD2a fused to the N-terminal YFP fragment (NRPD2aNTD-Yn) (Arabidopsis) (domain or fragment)”, for which the binding result is recorded as “no binding”.
